Experimental data: the supplement of paper PMC10849652
The list shows a part of the results.

Chains of the proteins cited; added tags and fusions are not shown. Lines headed by an entry give the natural chain unless they say otherwise; changes in a name come on top.
UniProt Q05932: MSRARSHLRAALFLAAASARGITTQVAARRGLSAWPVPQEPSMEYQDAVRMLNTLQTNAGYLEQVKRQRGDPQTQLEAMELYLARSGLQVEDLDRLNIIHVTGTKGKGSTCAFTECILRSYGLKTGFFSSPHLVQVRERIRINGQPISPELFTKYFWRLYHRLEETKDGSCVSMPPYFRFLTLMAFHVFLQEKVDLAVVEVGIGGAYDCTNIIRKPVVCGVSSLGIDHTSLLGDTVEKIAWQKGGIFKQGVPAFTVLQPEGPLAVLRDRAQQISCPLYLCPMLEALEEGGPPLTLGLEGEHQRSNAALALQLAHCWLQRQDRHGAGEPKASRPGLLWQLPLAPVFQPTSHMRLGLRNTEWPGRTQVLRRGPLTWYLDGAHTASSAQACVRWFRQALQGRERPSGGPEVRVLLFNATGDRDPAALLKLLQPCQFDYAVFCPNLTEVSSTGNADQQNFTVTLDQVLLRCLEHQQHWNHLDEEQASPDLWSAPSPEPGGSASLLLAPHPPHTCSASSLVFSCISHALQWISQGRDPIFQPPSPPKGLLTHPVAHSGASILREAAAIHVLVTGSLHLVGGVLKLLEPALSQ
UniProt P27469: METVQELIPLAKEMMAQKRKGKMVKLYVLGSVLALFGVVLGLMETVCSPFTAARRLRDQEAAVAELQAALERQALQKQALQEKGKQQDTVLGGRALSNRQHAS
FOXO3B, A0A2Z4LIS9, UniProt A0A2Z4LIS9, whole entry, looked up: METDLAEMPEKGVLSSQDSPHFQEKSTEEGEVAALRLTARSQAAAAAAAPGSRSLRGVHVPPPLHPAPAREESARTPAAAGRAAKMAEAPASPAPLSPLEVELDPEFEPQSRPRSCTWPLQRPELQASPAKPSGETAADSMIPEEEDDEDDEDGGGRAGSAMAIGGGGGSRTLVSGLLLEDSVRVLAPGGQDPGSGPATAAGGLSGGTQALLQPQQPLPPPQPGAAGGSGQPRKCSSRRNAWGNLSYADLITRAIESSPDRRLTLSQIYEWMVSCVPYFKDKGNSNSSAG
UniProt P32456: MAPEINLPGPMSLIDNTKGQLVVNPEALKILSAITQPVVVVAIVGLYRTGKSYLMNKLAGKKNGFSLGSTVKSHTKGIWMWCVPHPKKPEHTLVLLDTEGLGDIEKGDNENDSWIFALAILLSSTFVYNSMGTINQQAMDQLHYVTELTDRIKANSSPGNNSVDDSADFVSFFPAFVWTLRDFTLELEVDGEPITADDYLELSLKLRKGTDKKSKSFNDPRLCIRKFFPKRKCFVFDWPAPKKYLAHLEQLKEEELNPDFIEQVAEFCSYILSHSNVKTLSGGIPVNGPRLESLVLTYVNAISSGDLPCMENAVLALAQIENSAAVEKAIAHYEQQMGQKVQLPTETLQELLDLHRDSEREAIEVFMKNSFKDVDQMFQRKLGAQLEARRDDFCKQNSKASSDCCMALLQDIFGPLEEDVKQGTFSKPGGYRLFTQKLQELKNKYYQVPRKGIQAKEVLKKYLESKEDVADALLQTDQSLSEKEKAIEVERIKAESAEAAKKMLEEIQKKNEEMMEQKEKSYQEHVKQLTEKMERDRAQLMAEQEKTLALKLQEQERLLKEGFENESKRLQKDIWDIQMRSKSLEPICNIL
UniProt Q9H840: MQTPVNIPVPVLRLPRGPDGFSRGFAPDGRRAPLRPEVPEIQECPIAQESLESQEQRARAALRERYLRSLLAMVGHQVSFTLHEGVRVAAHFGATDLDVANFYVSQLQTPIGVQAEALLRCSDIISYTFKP
UniProt Q9UM11, whole entry, looked up: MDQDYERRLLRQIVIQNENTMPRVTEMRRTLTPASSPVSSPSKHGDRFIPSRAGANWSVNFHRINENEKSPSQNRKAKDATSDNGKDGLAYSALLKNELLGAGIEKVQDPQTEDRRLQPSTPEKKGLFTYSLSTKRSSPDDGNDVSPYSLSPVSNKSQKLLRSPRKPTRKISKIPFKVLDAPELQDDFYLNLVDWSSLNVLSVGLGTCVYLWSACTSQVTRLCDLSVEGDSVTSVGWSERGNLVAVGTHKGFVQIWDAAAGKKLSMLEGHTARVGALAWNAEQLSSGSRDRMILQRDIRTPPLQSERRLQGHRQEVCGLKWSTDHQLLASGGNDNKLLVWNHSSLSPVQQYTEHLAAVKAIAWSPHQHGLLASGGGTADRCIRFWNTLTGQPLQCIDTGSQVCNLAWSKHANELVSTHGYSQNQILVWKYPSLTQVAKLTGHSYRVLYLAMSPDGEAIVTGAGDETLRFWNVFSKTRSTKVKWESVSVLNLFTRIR
UniProt Q13467, whole entry, looked up: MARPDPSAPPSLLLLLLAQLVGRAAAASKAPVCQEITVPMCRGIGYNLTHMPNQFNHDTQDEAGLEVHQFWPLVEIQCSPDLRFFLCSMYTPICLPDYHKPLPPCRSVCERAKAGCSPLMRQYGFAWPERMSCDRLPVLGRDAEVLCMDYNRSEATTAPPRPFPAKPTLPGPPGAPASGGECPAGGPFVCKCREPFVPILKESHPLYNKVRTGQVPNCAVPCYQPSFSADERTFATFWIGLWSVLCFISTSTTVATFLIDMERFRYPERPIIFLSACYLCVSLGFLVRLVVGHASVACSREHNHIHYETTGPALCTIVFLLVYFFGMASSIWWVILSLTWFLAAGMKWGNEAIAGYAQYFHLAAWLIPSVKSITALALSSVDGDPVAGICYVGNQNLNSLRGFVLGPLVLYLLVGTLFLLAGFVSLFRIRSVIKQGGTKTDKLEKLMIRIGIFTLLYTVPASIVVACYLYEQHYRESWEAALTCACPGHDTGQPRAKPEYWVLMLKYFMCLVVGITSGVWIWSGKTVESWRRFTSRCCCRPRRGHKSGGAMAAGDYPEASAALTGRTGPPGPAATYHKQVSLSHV
UniProt Q92837: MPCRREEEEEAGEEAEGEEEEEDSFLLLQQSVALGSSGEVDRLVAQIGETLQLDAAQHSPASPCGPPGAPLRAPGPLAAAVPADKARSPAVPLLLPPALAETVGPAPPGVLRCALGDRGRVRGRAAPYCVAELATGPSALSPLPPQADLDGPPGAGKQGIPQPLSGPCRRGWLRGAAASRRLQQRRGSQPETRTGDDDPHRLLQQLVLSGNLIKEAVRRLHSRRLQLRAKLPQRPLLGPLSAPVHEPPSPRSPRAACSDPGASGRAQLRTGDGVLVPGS
UniProt Q5VTD9: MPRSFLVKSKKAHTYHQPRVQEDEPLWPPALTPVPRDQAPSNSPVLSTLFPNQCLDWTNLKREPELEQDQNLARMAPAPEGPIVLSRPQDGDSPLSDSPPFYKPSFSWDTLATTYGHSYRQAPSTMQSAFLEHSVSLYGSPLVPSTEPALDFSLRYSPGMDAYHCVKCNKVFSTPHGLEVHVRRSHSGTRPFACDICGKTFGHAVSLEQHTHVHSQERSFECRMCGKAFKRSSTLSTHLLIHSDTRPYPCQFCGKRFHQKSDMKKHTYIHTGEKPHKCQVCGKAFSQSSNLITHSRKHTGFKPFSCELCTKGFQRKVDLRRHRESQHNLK
UniProt Q14393: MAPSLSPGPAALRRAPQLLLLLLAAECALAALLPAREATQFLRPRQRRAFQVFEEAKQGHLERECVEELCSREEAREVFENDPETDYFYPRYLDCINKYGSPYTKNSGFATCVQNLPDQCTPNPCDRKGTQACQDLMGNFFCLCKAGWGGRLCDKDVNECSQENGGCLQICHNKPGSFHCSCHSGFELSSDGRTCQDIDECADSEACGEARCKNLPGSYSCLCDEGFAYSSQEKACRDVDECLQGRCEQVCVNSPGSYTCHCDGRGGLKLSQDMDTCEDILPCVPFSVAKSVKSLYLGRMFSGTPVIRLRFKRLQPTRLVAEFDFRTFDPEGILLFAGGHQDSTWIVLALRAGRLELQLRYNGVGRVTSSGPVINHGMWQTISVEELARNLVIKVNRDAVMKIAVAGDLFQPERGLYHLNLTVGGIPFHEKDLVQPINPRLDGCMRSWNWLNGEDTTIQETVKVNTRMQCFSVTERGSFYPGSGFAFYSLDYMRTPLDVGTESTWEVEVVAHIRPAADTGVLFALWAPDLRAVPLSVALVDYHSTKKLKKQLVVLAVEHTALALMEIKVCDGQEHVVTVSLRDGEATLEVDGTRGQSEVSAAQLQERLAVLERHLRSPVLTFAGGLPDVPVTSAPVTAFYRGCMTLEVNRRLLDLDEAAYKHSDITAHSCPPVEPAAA
UniProt Q17RS7: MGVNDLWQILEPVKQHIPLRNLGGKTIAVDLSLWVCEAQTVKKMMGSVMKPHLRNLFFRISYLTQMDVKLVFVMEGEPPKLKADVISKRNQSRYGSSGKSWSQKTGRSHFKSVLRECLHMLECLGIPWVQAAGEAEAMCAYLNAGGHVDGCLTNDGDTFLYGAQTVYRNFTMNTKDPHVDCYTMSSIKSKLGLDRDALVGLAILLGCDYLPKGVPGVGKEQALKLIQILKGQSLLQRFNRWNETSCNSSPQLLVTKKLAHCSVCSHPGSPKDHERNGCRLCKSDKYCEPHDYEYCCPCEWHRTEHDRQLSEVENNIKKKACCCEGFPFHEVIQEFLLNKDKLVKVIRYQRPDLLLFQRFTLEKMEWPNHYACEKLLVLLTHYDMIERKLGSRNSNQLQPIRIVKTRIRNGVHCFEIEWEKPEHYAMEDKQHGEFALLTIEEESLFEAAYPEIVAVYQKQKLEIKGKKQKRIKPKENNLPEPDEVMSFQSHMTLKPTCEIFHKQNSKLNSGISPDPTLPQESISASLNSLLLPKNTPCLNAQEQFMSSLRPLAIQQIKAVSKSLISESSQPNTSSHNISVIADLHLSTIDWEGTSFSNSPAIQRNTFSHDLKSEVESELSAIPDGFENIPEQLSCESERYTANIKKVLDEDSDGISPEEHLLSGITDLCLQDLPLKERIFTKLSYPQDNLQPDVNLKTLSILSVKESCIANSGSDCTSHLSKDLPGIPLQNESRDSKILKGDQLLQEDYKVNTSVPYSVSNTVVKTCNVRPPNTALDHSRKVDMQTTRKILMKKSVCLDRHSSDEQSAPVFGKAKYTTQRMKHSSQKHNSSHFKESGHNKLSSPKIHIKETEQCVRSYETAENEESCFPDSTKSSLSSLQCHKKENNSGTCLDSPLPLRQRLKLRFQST
UniProt P58012: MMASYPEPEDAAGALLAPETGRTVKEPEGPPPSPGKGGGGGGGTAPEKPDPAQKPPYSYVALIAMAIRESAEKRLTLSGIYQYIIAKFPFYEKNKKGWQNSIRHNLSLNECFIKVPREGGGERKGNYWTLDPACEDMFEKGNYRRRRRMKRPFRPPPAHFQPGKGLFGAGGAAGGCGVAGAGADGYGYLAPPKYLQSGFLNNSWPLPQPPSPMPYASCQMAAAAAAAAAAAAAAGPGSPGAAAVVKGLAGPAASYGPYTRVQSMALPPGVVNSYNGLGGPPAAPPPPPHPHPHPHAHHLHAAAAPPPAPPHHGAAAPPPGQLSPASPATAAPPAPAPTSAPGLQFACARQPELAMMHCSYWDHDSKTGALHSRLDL
UniProt Q8WWW8: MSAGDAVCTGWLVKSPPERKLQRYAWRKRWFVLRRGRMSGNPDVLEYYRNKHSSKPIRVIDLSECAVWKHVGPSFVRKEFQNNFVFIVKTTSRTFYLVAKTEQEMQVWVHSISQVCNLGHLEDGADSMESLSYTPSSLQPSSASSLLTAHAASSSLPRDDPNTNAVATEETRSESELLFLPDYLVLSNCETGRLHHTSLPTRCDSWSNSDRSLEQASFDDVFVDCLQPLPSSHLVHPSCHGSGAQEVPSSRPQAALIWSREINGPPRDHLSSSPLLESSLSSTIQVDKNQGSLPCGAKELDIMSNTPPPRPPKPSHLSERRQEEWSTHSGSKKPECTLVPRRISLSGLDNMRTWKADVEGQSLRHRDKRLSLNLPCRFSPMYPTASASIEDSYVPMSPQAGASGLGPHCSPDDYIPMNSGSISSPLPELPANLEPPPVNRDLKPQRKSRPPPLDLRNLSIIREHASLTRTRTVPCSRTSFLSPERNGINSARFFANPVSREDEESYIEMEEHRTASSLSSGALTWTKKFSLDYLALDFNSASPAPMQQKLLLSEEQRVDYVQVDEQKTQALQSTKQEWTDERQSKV
UniProt Q14435: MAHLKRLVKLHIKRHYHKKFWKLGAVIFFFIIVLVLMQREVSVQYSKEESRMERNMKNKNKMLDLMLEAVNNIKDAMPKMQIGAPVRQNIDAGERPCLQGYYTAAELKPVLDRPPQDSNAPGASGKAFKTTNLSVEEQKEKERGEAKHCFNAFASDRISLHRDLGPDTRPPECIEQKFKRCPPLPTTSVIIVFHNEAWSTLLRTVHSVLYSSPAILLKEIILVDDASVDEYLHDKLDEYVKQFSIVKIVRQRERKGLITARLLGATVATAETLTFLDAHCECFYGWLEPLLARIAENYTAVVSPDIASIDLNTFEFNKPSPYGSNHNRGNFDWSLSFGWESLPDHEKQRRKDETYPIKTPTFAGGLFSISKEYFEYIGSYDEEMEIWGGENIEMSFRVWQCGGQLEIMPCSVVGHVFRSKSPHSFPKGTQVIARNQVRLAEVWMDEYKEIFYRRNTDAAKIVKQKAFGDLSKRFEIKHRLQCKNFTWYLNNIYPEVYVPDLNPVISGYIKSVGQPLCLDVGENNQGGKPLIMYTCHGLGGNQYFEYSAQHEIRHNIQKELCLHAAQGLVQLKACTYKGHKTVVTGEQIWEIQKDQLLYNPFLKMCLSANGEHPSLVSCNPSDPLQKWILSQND

How the values were obtained:
Test in all cases: log2 fold change, soluble protein after heating vs DMSO (PISA); higher = thermal stabilisation; K562 lysate, 10 uM; active = over 0.2 and 3.5 SD of the protein, either way, in both replicates (recomputed)
[1] = compound: C1=CC=C(C=C1)C2=NC(=C(N2)C3=CC=NC=C3)C4=CC(=C(C=C4)Cl)O
How it was run: (§1)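 Log-two fold change in thermal stability relative to solvent controls is reported from duplicates. For each sample, crude K562 extract from dounce-homogenised pellets in PBS pH 7.4 with 1 mM MgCl2, at 1 mg/mL protein, was treated with 10 μM compound for 30 min. Aliquots heated for 3 min across 48°C-58°C were pooled, brought to 0.5% NP-40 at 4°C and cleared at 21,000xg for 90 min. The supernatant was quantified by TMTpro 16plex LC-MS/MS with channel sums equalised.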

[2] = compound: C1CCN(C1)C(=O)NC2=CC=CC(=C2)NC3=NC=C(C(=N3)NCCC4=CN=CN4)Br
How it was run: as §1

[3] = compound: C1CN(CCC1(CC2=CC=C(C=C2)Cl)N)C3=NC=NC4=C3C=CN4
How it was run: as §1

[4] = compound: C1COCCN1CCN2C3=CC=CC=C3N=C2NC(=O)C4=CC(=CC=C4)[N+](=O)[O-] [IRAK-1-4 Inhibitor I]
How it was run: as §1

[5] = compound: C1=CC2=NC=CN=C2C=C1/C=C/3\C(=O)NC(=O)S3
How it was run: as §1

[6] = compound: C#Cc1cccc(Nc2ncnc3cc(OCCOC)c(OCCOC)cc23)c1 [erlotinib]
How it was run: as §1

[7] = compound: C1=CC(=CC=C1C2=NC3=C(N2)C=C(C=C3)C(=O)N)OC4=CC=C(C=C4)Cl
How it was run: as §1

[8] = compound: C/C(=N\NC(=O)C1=CC(=CC=C1)S(=O)(=O)N2CCOCC2)/C3=C(C=CC(=C3)Cl)O
How it was run: as §1

[9] = compound: C1=CC2=C(C=CC(=C2)/C=C\3/C(=O)NC(=NCC4=CC=CS4)S3)N=C1
How it was run: as §1

[10] = compound: C1=CC=C2C(=C1)C3=NNC4=CC=CC(=C43)C2=O
How it was run: as §1

Measured: log2 fold change

FPGS (UniProt Q05932)
inactive: [1] -0.066 | [2] 0.123 | [3] 0.043 | [4] 0.065

GART (UniProt C9JZG2)
inactive: [5] 0.092 | [1] 0.007 | [2] -0.025 | [3] -0.011 | [4] 0.078

G0S2 (UniProt P27469)
inactive: [6] 0.179 | [7] 0.034 | [2] 0.064 | [3] 0.13

FOXO3B, A0A2Z4LIS9
inactive: [8] -0.111 | [9] -0.072 | [10] 0.089

GDE1 (UniProt Q9NZC3)
inactive: [6] 0.042 | [7] 0.02 | [5] -0.032 | [1] 0.097 | [2] 0.05 | [3] 0.027 | [4] -0.01

GABPB2 (UniProt Q8TAK5)
inactive: [5] 0.099 | [1] 0.071 | [2] 0.086 | [3] -0.214 | [4] -0.029

GBP2 (UniProt P32456)
inactive: [6] -0.063 | [7] -0.022 | [1] -0.109 | [2] -0.011 | [3] 0.009 | [4] 0

GAPVD1 (UniProt Q14C86)
inactive: [5] -0.016

GFOD1 (UniProt Q9NXC2)
inactive: [6] -0.032 | [7] 0.081 | [1] -0.087 | [4] 0.316

GEMIN7 (UniProt Q9H840)
inactive: [5] 0.087 | [1] 0.056 | [4] 0.015

FUT8 (UniProt Q9BYC5)
inactive: [6] 0.035 | [7] -0.058 | [5] -0.023 | [1] -0.057 | [2] 0.081 | [3] -0.013 | [4] 0.073

FZD1 (UniProt Q9UP38)
inactive: [1] 0.041 | [4] -0.059

FOXO4 (UniProt P98177)
inactive: [5] -0.108

FSCN2 isoform 2 (UniProt O14926)
inactive: [8] 0.193 | [9] -0.029 | [10] -0.308 | [2] 0.092 | [3] 0.005

FZR1 isoform 2 (UniProt Q9UM11)
inactive: [5] 0.099

FUT11 (UniProt Q495W5)
inactive: [6] -0.061 | [7] -0.026 | [5] -0.186 | [1] -0.077 | [2] -0.129 | [3] 0.075 | [4] -0.019

FUT4 (UniProt P22083)
inactive: [2] -0.245 | [3] 0.003

FTSJ1 isoform 2 (UniProt Q9UET6)
inactive: [8] -0.149 | [9] 0.055 | [10] -0.039 | [2] 0.051 | [3] 0.059

FZD5 (UniProt Q13467)
inactive: [5] -0.074

GALNT4 (UniProt Q8N4A0)
inactive: [8] 0.011 | [9] -0.062 | [5] -0.107 | [10] 0.014 | [2] -0.071 | [3] 0.086

GADD45A (UniProt P24522)
inactive: [1] 0.097 | [4] -0.003

GDPD5 (UniProt Q8WTR4)
inactive: [8] -0.04 | [9] -0.123 | [10] 0.026

GATM (UniProt P50440)
inactive: [2] 0.217 | [3] 0.315

FSIP2 (UniProt Q5CZC0)
inactive: [6] -0.148 | [7] 0.084 | [1] -0.109 | [4] -0.044

FRAT1 (UniProt Q92837)
inactive: [8] -0.126 | [9] -0.279 | [10] 0.103 | [2] 0.074 | [3] -0.063

GFI1B (UniProt Q5VTD9)
inactive: [6] -0.19 | [7] -0.133 | [1] 0.069 | [4] 0.023

GAS6 isoform 1 (UniProt Q14393)
inactive: [6] 0.095 | [7] -0.03 | [5] 0.059 | [2] 0.096 | [3] -0.163

GANC (UniProt Q8TET4)
inactive: [6] -0.045 | [7] 0.139 | [1] 0.025 | [2] -0.049 | [3] 0.118 | [4] 0.053

GEN1 (UniProt Q17RS7)
inactive: [8] -0.036 | [9] -0.035 | [1] 0.046 | [10] 0.099 | [2] -0.199 | [3] -0.045 | [4] -0.115

GBA2 (UniProt Q9HCG7)
inactive: [6] -0.088 | [7] 0.063 | [5] 0.035 | [1] -0.055 | [2] 0.007 | [3] 0.041 | [4] 0.01

FOXL2 (UniProt P58012)
inactive: [6] 0.274 | [7] -0.129 | [5] -0.006 | [1] -0.085 | [2] -0.024 | [3] 0.187 | [4] 0.026

GAB3 isoform 2 (UniProt Q8WWW8)
inactive: [1] -0.178 | [2] 0 | [3] 0.043 | [4] 0.002

FUNDC2 (UniProt H7C0K8)
inactive: [8] 0.315 | [9] 0.079 | [5] -0.152 | [10] -0.049

GALNT3 (UniProt Q14435)
inactive: [5] 0.012 | [2] -0.013 | [3] 0.079

GARS1 (UniProt H7C443)
inactive: [5] 0.011

FRAS1 isoform 2 (UniProt Q86XX4)
inactive: [8] -0.119 | [9] -0.022 | [10] 0.039

GAGE1 (UniProt Q13065)
inactive: [5] 0.126 | [1] 0.137 | [2] 0.029 | [3] 0.336 | [4] -0.003

11 successive entries out of the list so far, quoted:
GAS6 isoform 1 (UniProt Q14393)
inactive: [6] 0.095 | [7] -0.03 | [5] 0.059 | [2] 0.096 | [3] -0.163

GANC (UniProt Q8TET4)
inactive: [6] -0.045 | [7] 0.139 | [1] 0.025 | [2] -0.049 | [3] 0.118 | [4] 0.053

GEN1 (UniProt Q17RS7)
inactive: [8] -0.036 | [9] -0.035 | [1] 0.046 | [10] 0.099 | [2] -0.199 | [3] -0.045 | [4] -0.115

GBA2 (UniProt Q9HCG7)
inactive: [6] -0.088 | [7] 0.063 | [5] 0.035 | [1] -0.055 | [2] 0.007 | [3] 0.041 | [4] 0.01

FOXL2 (UniProt P58012)
inactive: [6] 0.274 | [7] -0.129 | [5] -0.006 | [1] -0.085 | [2] -0.024 | [3] 0.187 | [4] 0.026

GAB3 isoform 2 (UniProt Q8WWW8)
inactive: [1] -0.178 | [2] 0 | [3] 0.043 | [4] 0.002

FUNDC2 (UniProt H7C0K8)
inactive: [8] 0.315 | [9] 0.079 | [5] -0.152 | [10] -0.049

GALNT3 (UniProt Q14435)
inactive: [5] 0.012 | [2] -0.013 | [3] 0.079

GARS1 (UniProt H7C443)
inactive: [5] 0.011

FRAS1 isoform 2 (UniProt Q86XX4)
inactive: [8] -0.119 | [9] -0.022 | [10] 0.039

GAGE1 (UniProt Q13065)
inactive: [5] 0.126 | [1] 0.137 | [2] 0.029 | [3] 0.336 | [4] -0.003

Further entries follow.

GATA1 (UniProt P15976)
inactive: [6] 0.031 | [7] 0.003 | [5] -0.006 | [1] 0.009 | [4] 0.103

GATB (UniProt O75879)
inactive: [8] 0.356 | [9] -0.107 | [1] -0.034 | [10] 0.037 | [4] -0.009

GC isoform 3 (UniProt P02774)
inactive: [8] 0.039 | [9] -0.019 | [1] -0.199 | [10] 0.012 | [2] 0.051 | [3] 0.055 | [4] 0.15
